Assay results as given in PMC11302876.
No constants are given. Whether binding was seen depends on the method and setting. Binding seen in cells or lysates may run through a third protein. Some results given as binding are weak or reduced against the parent protein; the word gives no strength.

Sequences of proteins named here, by UniProt entry; tags and fusion partners are left off.
UniProt P80200: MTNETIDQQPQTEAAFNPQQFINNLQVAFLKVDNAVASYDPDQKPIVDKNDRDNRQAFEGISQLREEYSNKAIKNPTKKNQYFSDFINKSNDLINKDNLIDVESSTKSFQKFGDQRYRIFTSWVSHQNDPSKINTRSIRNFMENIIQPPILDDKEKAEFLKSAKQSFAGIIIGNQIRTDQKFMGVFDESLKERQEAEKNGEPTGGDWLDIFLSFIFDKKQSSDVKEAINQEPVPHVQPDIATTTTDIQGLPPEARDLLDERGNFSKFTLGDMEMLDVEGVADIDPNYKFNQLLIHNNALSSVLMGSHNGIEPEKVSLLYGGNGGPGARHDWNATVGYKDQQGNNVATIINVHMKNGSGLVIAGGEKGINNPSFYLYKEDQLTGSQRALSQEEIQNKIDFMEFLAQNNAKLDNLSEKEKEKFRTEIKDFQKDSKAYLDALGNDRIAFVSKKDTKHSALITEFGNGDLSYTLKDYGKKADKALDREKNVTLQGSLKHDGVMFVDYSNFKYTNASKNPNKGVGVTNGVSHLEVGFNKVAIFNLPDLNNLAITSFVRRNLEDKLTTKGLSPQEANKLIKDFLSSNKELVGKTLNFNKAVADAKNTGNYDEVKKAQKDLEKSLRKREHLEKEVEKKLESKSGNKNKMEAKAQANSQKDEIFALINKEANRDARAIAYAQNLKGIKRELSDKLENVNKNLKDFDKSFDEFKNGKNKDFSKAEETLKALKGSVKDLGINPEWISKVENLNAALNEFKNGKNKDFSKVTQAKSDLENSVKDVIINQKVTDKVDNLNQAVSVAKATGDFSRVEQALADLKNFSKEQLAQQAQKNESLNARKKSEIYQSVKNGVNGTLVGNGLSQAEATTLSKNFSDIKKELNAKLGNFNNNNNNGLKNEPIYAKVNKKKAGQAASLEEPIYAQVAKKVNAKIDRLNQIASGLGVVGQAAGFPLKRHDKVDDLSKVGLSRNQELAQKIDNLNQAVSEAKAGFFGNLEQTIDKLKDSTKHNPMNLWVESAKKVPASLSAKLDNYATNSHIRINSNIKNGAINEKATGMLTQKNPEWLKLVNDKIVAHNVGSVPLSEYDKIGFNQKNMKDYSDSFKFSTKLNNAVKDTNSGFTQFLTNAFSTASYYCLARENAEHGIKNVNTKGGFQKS

Biological target: T1, CYP11A1 (cholesterol side-chain cleavage enzyme) (human (endogenous in AGS and HGC-27)) (UniProt P05108)
T1 sequence: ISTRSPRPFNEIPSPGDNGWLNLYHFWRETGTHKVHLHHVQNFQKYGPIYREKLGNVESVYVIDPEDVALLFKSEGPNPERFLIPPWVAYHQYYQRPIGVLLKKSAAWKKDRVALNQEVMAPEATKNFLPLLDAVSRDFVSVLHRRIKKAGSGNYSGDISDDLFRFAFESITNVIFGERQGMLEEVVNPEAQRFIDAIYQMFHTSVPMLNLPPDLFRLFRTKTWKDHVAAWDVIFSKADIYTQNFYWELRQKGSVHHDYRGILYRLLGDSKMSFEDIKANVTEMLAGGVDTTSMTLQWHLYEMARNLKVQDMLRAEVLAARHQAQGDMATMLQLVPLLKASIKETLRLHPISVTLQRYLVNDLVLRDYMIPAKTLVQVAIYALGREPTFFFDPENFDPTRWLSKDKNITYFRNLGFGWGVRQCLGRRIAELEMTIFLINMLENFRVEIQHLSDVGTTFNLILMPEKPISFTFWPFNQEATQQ
Experiment: co-IP; lysates (NP-40 lysis buffer) of AGS or HGC-27 cells infected with H. pylori strains; immunoprecipitated in both directions with anti-CagA or anti-CYP11A1, protein A/G PLUS-agarose, overnight 4°C; wash 0.08% NP-40, 150 mM NaCl, 50 mM Tris-HCl pH 8.0, 5 mM MgCl2; Western blot

## Cytotoxin-associated gene A (CagA) of Helicobacter pylori strain NCTC 11637 (from UniProt P80200 1-1147)
  binding: binds
